The list is a part of this screen's results and no random one: it gathers tests that were run many times, whatever their T/C, doses with no T/C, and many T/C values between a quarter and a half above the control. Other doses and runs of a compound stand elsewhere. T/C: endpoint of the treated group in % of that of the vehicle group. Some doses have a count of surviving animals in place of a T/C: the source files T/C as zero there, which appears to mark a toxic dose or a test without result, not a measured value. Some survivor counts are full or nearly so, which does not show that the dose was tolerated: survival well below the control is almost never listed, so the zero probably covers shortened survival too. Survivors were counted at the toxicity check, usually on the fifth day, unless a day is given; later deaths do not show. Schedule codes are those of the source, taken here to give the interval after Q, in days (D) or hours (H), and the number of doses after X. Some entries were tested several times; the values are given in rising order. For survival time, this PubChem deposit counts one and a half times the control or more as active, and values a quarter to a half above the control carry no call in these data; other NCI protocols may use other cut-offs. Some T/C values carry the count of animals alive at the toxicity check (mostly the fifth day); without a count, all were alive then.
Test system: BDF1 mice, P388 leukemia ip, median survival T/C
Experiment: NCI In Vivo Anticancer Drug Screen. Data for tumor model P388 Leukemia (intraperitoneal) in B6D2F1 (BDF1) mice
Details: T/C endpoint: median survival time, higher T/C = longer survival
Procedure, shortened: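 Transplantable tumour in mice; compound vs vehicle dosing; survival scored; ratio of treated to control reported.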

[1] = dose: 200.0 mg/kg/injection, schedule: Q01DX009 (ip), vehicle: Klucel (hydroxypropylcellulose) (HPC)

For CSc1nc2n(C)cc(C)cc-2c(=O)n1, the survivor count (dose: 200.0 mg/kg/injection, schedule: Q01DX001 (ip), vehicle: suspension in saline) was 3 of 6 and the survivor count (dose: 400.0 mg/kg/injection, schedule: Q01DX001 (ip), vehicle: suspension in saline) was 3 of 6.
For C=CC12COC(=O)C(=C)C1C(O)C(C(=C)C(=O)OC)C(O)C2 (centres undefined), the T/C (dose: 4.0 mg/kg/injection, schedule: Q01DX010 (ip), vehicle: steroid suspending solution) was 140 % of control, the T/C (dose: 6.0 mg/kg/injection, schedule: Q01DX010 (ip), vehicle: steroid suspending solution) was 131 % of control [5 of 6 alive] and the T/C (dose: 8.0 mg/kg/injection, schedule: Q01DX010 (ip), vehicle: steroid suspending solution) was 131 % of control.
CC(C)c1oc(=O)cc2c1[C@@H](O)[C@H]1OC(=O)[C@@]3(C)[C@@H](O)[C@H]4O[C@H]4[C@@]2(C)[C@@H]13 was tested, and the survivor count (dose: 60.0 mg/kg/injection, schedule: Q01DX001 (ip), vehicle: saline with Tween-80) was 0 of 6, the survivor count (dose: 60.0 mg/kg/injection, schedule: Q04DX003 (ip), vehicle: saline with Tween-80) was 0 of 6 and the survivor count (dose: 120.0 mg/kg/injection, schedule: Q01DX001 (ip), vehicle: saline with Tween-80) was 0 of 6. For the same molecule, the survivor count (dose: 120.0 mg/kg/injection, schedule: Q04DX003 (ip), vehicle: saline with Tween-80) was 0 of 6 and the survivor count (dose: 240.0 mg/kg/injection, schedule: Q01DX001 (ip), vehicle: saline with Tween-80) was 0 of 6.
CSC(=O)OCC1=CC2OC(=O)C3=COC(OC4OC(CO)C(O)C(O)C4O)C1C32 (centres undefined) was tested, and the T/C (dose: 8.0 mg/kg/injection, schedule: Q01DX009 (ip), vehicle: saline with Tween-80) was 129 % of control.
CCCCCCCCCCCCCCCCCC[n+]1cccc(C2CCCN2C)c1 (centres undefined) (tested in a mixture with another compound) was tested, and the T/C (dose: 12.5 mg/kg/injection, schedule: Q01DX009 (ip), vehicle: Klucel (hydroxypropylcellulose) (HPC)) was 144 % of control, the survivor count (dose: 50.0 mg/kg/injection, schedule: Q01DX009 (ip), vehicle: Klucel (hydroxypropylcellulose) (HPC)) was 5 of 6 and 6 of 6 and the survivor count (dose: 100.0 mg/kg/injection, schedule: Q01DX009 (ip), vehicle: Klucel (hydroxypropylcellulose) (HPC)) was 0 of 6. For the same molecule, the survivor count [1] was 0 of 6.
With C=CC1CCCCC1C=C (centres undefined) the survivor count (dose: 12.5 mg/kg/injection, schedule: Q01DX009 (ip), vehicle: saline) was 6 of 6.
CCOC(=O)/C=C\CBr was tested, and the survivor count (dose: 96.0 mg/kg/injection, schedule: Q01DX010 (ip), vehicle: saline) was 4 of 6.
For CC(CC(=O)O)C(C(=O)O)C(=O)O (centres undefined), the T/C (dose: 6.25 mg/kg/injection, schedule: Q01DX009 (ip), vehicle: water) was 128 % of control, the T/C (dose: 50.0 mg/kg/injection, schedule: Q01DX009 (ip), vehicle: water) was 126 % of control and the survivor count (dose: 400.0 mg/kg/injection, schedule: Q04DX003 (ip), vehicle: water) was 1 of 6.
With Nc1ncnc2[nH]ncc12 the T/C (dose: 1.5 mg/kg/injection, schedule: Q01DX010 (ip), vehicle: saline) was 125 % of control and the T/C (dose: 6.0 mg/kg/injection, schedule: Q01DX010 (ip), vehicle: saline) was 125 % of control.
For CCCCCCCCCCCCCCCCNCCO, the survivor count [1] was 6 of 6.
In the case of Cn1c(=O)c2c(c3ccccc31)Oc1oc3ccc4ccccc4c3c(=O)c1C2, the survivor count (dose: 100.0 mg/kg/injection, schedule: Q01DX009 (ip), vehicle: saline with Tween-80) is reported as 5 of 6.
